The target in test [1] is T1, HA-tagged LEF-1 (UniProt Q9UJU2 1-399).
T1 construct: LEF-1 (lymphoid enhancer factor 1); written both HA-LEF-1 and LEF-1-HA; also called pHA-LEF-1; HA-LEF-1; source: HEK293, transfected, in lysate; NIH 3T3, transfected, in lysate and in fixed cells
The test is described as follows: co-IP; HEK293 total lysates, GFP-β-catenin and HA-LEF1 transiently expressed; IP by anti-HA antibody; cells untreated or treated for 6 h with NSC23766 and/or LiCl.

Protein sequences, listed by entry. Tags and fused reporters are not part of them.
UniProt Q9UJU2: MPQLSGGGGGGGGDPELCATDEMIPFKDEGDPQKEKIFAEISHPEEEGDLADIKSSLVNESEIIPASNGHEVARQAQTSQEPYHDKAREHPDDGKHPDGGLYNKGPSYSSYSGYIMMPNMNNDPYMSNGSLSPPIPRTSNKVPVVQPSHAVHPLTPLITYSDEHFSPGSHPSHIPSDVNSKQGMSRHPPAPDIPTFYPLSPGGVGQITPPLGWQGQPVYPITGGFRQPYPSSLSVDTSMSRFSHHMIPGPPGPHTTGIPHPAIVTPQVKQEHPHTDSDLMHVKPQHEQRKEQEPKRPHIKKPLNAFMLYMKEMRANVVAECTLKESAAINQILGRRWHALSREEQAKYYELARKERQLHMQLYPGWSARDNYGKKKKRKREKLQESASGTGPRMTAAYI
UniProt P27782: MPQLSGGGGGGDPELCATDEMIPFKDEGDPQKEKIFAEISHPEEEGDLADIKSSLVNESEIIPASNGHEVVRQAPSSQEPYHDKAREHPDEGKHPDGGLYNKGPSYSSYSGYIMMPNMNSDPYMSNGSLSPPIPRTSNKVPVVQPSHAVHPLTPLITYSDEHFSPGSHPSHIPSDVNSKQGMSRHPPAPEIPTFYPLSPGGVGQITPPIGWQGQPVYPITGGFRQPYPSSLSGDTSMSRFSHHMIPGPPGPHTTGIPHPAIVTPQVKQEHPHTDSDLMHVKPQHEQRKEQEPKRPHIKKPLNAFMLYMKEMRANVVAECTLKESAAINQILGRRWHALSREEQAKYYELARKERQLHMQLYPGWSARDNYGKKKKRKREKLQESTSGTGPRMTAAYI

Test [2] deals with LEF-1 (endogenous, NIH 3T3 cells) (mouse (endogenous in NIH 3T3)) (UniProt P27782). Put plainly: proximity ligation; PLA of myc-tagged β-catenin constructs with endogenous LEF-1; unpublished data.
In test [3] the target is T1, HA-tagged LEF-1. Put plainly: co-IP; NIH 3T3 lysates, pLEF-1-HA co-transfected with pβ-catenin-myc constructs; IP with HA mAb or isotype control IgG, blot with anti-myc; densitometry over three independent experiments.
The target of test [4] is T1, HA-tagged LEF-1. Put plainly: proximity ligation; Duolink in situ PLA on fixed NIH 3T3 cells co-transfected with myc-tagged β-catenin constructs and pHA-LEF-1; anti-myc and anti-HA antibodies.

Changes are numbered by the printed parent chain. Names may count otherwise. Results are given in words; binding and its absence hold for the method and conditions named. Binding seen in cells or lysates may run through a third protein. Some entries that bind do so weakly or less than the wild type.

Take “GFP-β-catenin (from UniProt P35222 1-781)”: in the test with HA-tagged LEF-1 [1], the binding result is recorded as “binds”.
For the molecule “myc-tagged β-catenin wild-type (from UniProt P35222 1-781)”, the binding entry (in test [2]; in the test with HA-tagged LEF-1 [3]; with HA-tagged LEF-1 [4]) was “binds” in each case.

B1: myc-tagged β-catenin S191A (natural protein, UniProt P35222 1-781, looked up)
chain: MATQADLMELDMAMEPDRKAAVSHWQQQSYLDSGIHSGATTTAPSLSGKGNPEEEDVDTSQVLYEWEQGFSQSFTQEQVADIDGQYAMTRAQRVRAAMFPETLDEGMQIPSTQFDAAHPTNVQRLAEPSQMLKHAVVNLINYQDDAELATRAIPELTKLLNDEDQVVVNKAAVMVHQLSKKEASRHAIMRAPQMVSAIVRTMQNTNDVETARCTAGTLHNLSHHREGLLAIFKSGGIPALVKMLGSPVDSVLFYAITTLHNLLLHQEGAKMAVRLAGGLQKMVALLNKTNVKFLAITTDCLQILAYGNQESKLIILASGGPQALVNIMRTYTYEKLLWTTSRVLKVLSVCSSNKPAIVEAGGMQALGLHLTDPSQRLVQNCLWTLRNLSDAATKQEGMEGLLGTLVQLLGSDDINVVTCAAGILSNLTCNNYKNKMMVCQVGGIEALVRTVLRAGDREDITEPAICALRHLTSRHQEAEMAQNAVRLHYGLPVVVKLLHPPSHWPLIKATVGLIRNLALCPANHAPLREQGAIPRLVQLLVRAHQDTQRRTSMGGTQQQFVEGVRMEEIVEGCTGALHILARDVHNRIVIRGLNTIPLFVQLLYSPIENIQRVAAGVLCELAQDKEAAEAIEAEGATAPLTELLHSRNEGVATYAAAVLFRMSEDKPQDYKKRLSVELTSSLFRTEPMAWNETADLGLDIGAQGEPLGYRQDDPSYRSFHSGGYGQDALGMDPMMEHEMGGHHPGADYPVDGLPDLGHAQDLMDGLPPGDSNQLAWFDTDL
notes: from the Long laboratory (Wu et al., 2008); also called pmyc-β-catenin-S191A; source: NIH 3T3, transfected, in lysate and in fixed cells
Consider B1, for which the binding result (in test [2]; with HA-tagged LEF-1 [4]) was “binds” in each case.

B2: myc-tagged β-catenin S605A (natural protein, UniProt P35222 1-781, looked up)
chain: B1 chain with A191S, S605A
notes: from the Long laboratory (Wu et al., 2008); also called pmyc-β-catenin-S605A; source: NIH 3T3, transfected, in lysate and in fixed cells
Take B2: the binding entry (in test [2]; with HA-tagged LEF-1 [4]) was “binds” each time.
